Test results as given in article PMC7371702.
Changes are numbered by the printed parent chain. Results are given in words; binding and its absence hold for the method and conditions named. Binding seen in cells or lysates may run through a third protein. Some entries that bind do so weakly or less than the wild type. Where a sequence is shown, tags or fusion partners need not be part of it.

Protein sequences, listed by entry. Tags and fused reporters are not part of them. Residues count along the entry.
UniProt P36544, residues 23-502: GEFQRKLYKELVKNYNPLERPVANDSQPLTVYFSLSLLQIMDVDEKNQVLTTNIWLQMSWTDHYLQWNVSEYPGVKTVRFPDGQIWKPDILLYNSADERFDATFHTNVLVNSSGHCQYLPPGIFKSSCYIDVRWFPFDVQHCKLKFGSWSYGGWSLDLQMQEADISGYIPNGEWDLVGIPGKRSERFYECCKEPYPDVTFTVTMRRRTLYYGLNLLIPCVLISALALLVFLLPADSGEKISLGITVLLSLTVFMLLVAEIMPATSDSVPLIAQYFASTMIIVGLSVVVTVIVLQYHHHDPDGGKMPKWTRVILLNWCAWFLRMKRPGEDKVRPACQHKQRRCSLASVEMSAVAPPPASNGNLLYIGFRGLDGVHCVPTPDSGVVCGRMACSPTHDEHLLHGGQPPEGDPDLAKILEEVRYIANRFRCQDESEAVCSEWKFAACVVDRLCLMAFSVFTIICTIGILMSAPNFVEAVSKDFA

Key:
[1] = molecular target: T1, FLAG-tagged mouse Ly6H R38A mutant (mouse) (UniProt Q9WUC3); experiment: co-IP; TARO-YFP cells transfected with FLAG-tagged Ly6 proteins; lysis in 50 mM Tris-HCl pH 7.4, 150 mM NaCl, 10% glycerol, 1% Triton X-100, 2% n-octyl-β-D-glucopyranoside; immunoprecipitation with anti-FLAG M2 and Protein G magnetic beads; western blot with anti-GFP
T1 sequence: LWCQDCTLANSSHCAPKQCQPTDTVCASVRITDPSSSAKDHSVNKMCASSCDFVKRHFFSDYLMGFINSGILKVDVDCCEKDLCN

[2] = molecular target: T2, FLAG-tagged mouse Ly6H (mouse) (UniProt Q9WUC3); experiment: as above
T2 sequence (chain, GPI anchor (removed from the cell surface by PI-PLC)): T1 sequence with A38R

binding [1]: no binding
binding [2]: binds
Substance: YFP-tagged α7 nicotinic acetylcholine receptor (human CHRNA7 with YFP fused into the M3-M4 loop) (from UniProt P36544 23-502)
